# Results taken from paper PMC7819943, “Rice protein-binding microarrays: a tool to detect cis-acting elements near promoter regions in rice”.
# Protein sequences, listed by entry. Tags and fused reporters are not part of them.
# UniProt Q0JBA9, entry or part of it: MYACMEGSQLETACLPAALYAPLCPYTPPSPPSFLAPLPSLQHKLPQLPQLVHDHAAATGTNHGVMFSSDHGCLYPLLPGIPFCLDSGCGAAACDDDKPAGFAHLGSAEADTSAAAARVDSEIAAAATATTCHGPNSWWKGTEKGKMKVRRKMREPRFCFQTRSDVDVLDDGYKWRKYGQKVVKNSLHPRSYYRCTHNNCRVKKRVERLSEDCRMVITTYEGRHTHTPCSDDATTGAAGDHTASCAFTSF
# This is one part of the list.
# Target: OsWRKY34 (Oryza sativa, UniProt Q0JBA9 1-250)
# Assay: protein-binding microarray (RPBM); PBS, 2% BSA, 51.3 ng/ul salmon testes DNA, 50 uM zinc acetate, 200 nM TF, 25 C, 1 h; high values mean tight binding
# Details: protein: recombinant; tags: N-terminal polyhistidine and DsRed monomer fusion (pET32a); label: CyDye5-dUTP incorporated in the synthesized complementary strand; 3' TTTTT single-stranded linker to array surface; dsDNA, one strand shown
# Method in brief: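 Binding signal is defined as the fluorescence intensity of each feature in arbitrary units, read on an Axon 4000B scanner. Transcription factors with N-terminal polyhistidine and DsRed fusions came from E. coli BL21-CodonPlus and were purified on Ni–NTA. They were incubated at 200 nM for 1 h at 25 °C on a custom Agilent array that had been made double-stranded with Cy5-dUTP, with 50 µM zinc acetate present, and the array was washed.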
row,Sequence,binding signal
1,TCGCTCTTATCCTTTTTTTTTTCACACGAGTGCAACTGTCCGGAGTCACCTAGTGCAG,8450 fluorescence intensity (a.u.)
2,CCTATTGGACCACTAGAACATGTCGTCCTTCAGGCCAACTCGGAGTCACCTAGTGCAG,8050 fluorescence intensity (a.u.)
3,CACATTTTGTTAAACTTATCATTTCTACTTCCATATATTACGGAGTCACCTAGTGCAG,8220 fluorescence intensity (a.u.)
4,AAGTTACCACTCCGGCACTCACACAATCACATTCACATTTCGGAGTCACCTAGTGCAG,9820 fluorescence intensity (a.u.)
5,TGCATGCCTCGATCGTCTATCTCATCTTGTAGTGCGTTTCCGGAGTCACCTAGTGCAG,10000 fluorescence intensity (a.u.)
6,GCTGGGGAGGGAGGGGAGGCGGCCGGCCACCAACCCATCGCGGAGTCACCTAGTGCAG,11500 fluorescence intensity (a.u.)
7,CGTCCAGTCGTCGTAGCCCCTACTCGCCGGCGCCGCTCCACGGAGTCACCTAGTGCAG,9930 fluorescence intensity (a.u.)
8,GCAGTACCTTTTTTTCCCTTTTGGCACTTGAAAGCAACCTCGGAGTCACCTAGTGCAG,11700 fluorescence intensity (a.u.)
9,AACATGTTTGACCATTCGTCTTATTCAAAAACCTTTTGTGCGGAGTCACCTAGTGCAG,8040 fluorescence intensity (a.u.)
10,CATTTCTTGCCACCTTTATTCGATTCCACCACTTGACACACGGAGTCACCTAGTGCAG,9820 fluorescence intensity (a.u.)
11,CGCGTCACCGGATCCAACTCGGCCCACTCGCATCGATTCTCGGAGTCACCTAGTGCAG,12000 fluorescence intensity (a.u.)
12,ATACTCACATGGATTCACCTCTGTTATGATTTTTGACAAACGGAGTCACCTAGTGCAG,9380 fluorescence intensity (a.u.)
13,TCTTGGTTAGTTGGATTTTTAGCTTCCGTGTTTTTTGAGCCGGAGTCACCTAGTGCAG,10900 fluorescence intensity (a.u.)
14,CTTTTGCCAGTGGCCCATCATGGTAACTGTCTGCACTACGCGGAGTCACCTAGTGCAG,8270 fluorescence intensity (a.u.)
15,TTTACAGTTGATTTTGACGGGTTTGTTGGCGAGGATTTTTCGGAGTCACCTAGTGCAG,9360 fluorescence intensity (a.u.)
16,TGATGGTGAGGTGACTTTTGTTTCTTGATTTCGCGTTGCCCGGAGTCACCTAGTGCAG,9420 fluorescence intensity (a.u.)
17,AGAATTGCACATTGTATCCAGCCTATCACTCAATCACCTCCGGAGTCACCTAGTGCAG,8720 fluorescence intensity (a.u.)
18,CGCTGCGCACTCACCTCTCATCGTCGCACGCACGCCCGCACGGAGTCACCTAGTGCAG,9630 fluorescence intensity (a.u.)
19,AGTGTTGTATCCGTCGGCTGCCCCATAGTCTTGGTCCTCTCGGAGTCACCTAGTGCAG,11400 fluorescence intensity (a.u.)
20,AGCCTATGTATCCATATATACACTCCCATTTAGTTATTTCCGGAGTCACCTAGTGCAG,11700 fluorescence intensity (a.u.)
21,CTCCTTTAGCTAAAACCACAAGACTGCCATTCTCTACGAACGGAGTCACCTAGTGCAG,8400 fluorescence intensity (a.u.)

row,Sequence,binding signal
1,CTGCCACGTCACATTTGCCGCCCTCTGGGAGGGCGATTTTCGGAGTCACCTAGTGCAG,8580 fluorescence intensity (a.u.)
2,ACTACCACTGCATAGTGTCATGCATCATTGACTCATCATCCGGAGTCACCTAGTGCAG,11700 fluorescence intensity (a.u.)
3,GGGGAGGGGAGAATGGGCCGATGGCCCACTCGAAGGAAAACGGAGTCACCTAGTGCAG,10100 fluorescence intensity (a.u.)
4,AAACTCGACGCAACCCCTACCTGGCGCGCCAACTGTCGAACGGAGTCACCTAGTGCAG,9170 fluorescence intensity (a.u.)
5,GCTACTCATACTCCCCTGTTCTATGGTGTTGTGATTTGTGCGGAGTCACCTAGTGCAG,8050 fluorescence intensity (a.u.)
6,TTCGTCGATCAGCGTCACGAGCCATTAATTCCTTTCTCGCCGGAGTCACCTAGTGCAG,9790 fluorescence intensity (a.u.)
7,GGCCGGCGACCAGCTTCGCCGCCACCCATGTATCGTCTCTCGGAGTCACCTAGTGCAG,10000 fluorescence intensity (a.u.)
8,GATTTTCTAGGTTTCATCCAATATCAATCTCTTCTCCTCACGGAGTCACCTAGTGCAG,8240 fluorescence intensity (a.u.)
9,CTGCGCGTCCCTTTTTGTTTCTCTTTCTCCTAGCAACAAGCGGAGTCACCTAGTGCAG,14600 fluorescence intensity (a.u.)
10,ATGGGCTGAAATTTCAGAAGGCATCCATCCCCATGATAATCGGAGTCACCTAGTGCAG,8330 fluorescence intensity (a.u.)
11,ACTTGTATAACTTGAACTGCACTTCTTTCATATTCCTTCGCGGAGTCACCTAGTGCAG,12100 fluorescence intensity (a.u.)
12,TAGCTACTCTTTTTTTTTTTGGTGACGTGCCCCATTCACTCGGAGTCACCTAGTGCAG,10900 fluorescence intensity (a.u.)
13,TCCCAATTTTTTTCTCACATGCACTTTGTCACCTGTCAGACGGAGTCACCTAGTGCAG,9430 fluorescence intensity (a.u.)
14,ACCAATCACACATTTCCTCCGATTATTCTCACCTATTTTTCGGAGTCACCTAGTGCAG,11300 fluorescence intensity (a.u.)
15,CTTCTCAAACTATCAAAGGAGTCGATTTGCACCTGTTTTACGGAGTCACCTAGTGCAG,8110 fluorescence intensity (a.u.)
16,GACTCCTCGTGCTTGTGCTAGGTTAGCTGCTCTCCTCTTCCGGAGTCACCTAGTGCAG,9010 fluorescence intensity (a.u.)
17,ATCGAACTCCTAACTGCAGCTCATGATTTCTAATATATATCGGAGTCACCTAGTGCAG,8880 fluorescence intensity (a.u.)
18,AACCCAAACTGCTCTTCCGCCCTCCTCACCCCGATTCTTTCGGAGTCACCTAGTGCAG,8090 fluorescence intensity (a.u.)
19,ACTGGAGGGGAACGAGAGAGGTGGCTGGACTGTATTTTCCCGGAGTCACCTAGTGCAG,9890 fluorescence intensity (a.u.)
20,CATCCAAGTTAGGTATATCCCTCTTGTTGTGTATCTGCATCGGAGTCACCTAGTGCAG,11300 fluorescence intensity (a.u.)
21,CTCGCCGTCGACTCCTCCTCCTCCTCCTCCTCTCACCATGCGGAGTCACCTAGTGCAG,9380 fluorescence intensity (a.u.)

# Some values from above.
# In binding signal, ACTACCACTGCATAGTGTCATGCATCATTGACTCATCATCCGGAGTCACCTAGTGCAG is entered as 11700 fluorescence intensity (a.u.)
# In binding signal, CATCCAAGTTAGGTATATCCCTCTTGTTGTGTATCTGCATCGGAGTCACCTAGTGCAG is entered as 11300 fluorescence intensity (a.u.)
